# Test results as given in article PMC3979232.
# Protein sequences, listed by entry. Tags and fused reporters are not part of them.
# UniProt A2AM29: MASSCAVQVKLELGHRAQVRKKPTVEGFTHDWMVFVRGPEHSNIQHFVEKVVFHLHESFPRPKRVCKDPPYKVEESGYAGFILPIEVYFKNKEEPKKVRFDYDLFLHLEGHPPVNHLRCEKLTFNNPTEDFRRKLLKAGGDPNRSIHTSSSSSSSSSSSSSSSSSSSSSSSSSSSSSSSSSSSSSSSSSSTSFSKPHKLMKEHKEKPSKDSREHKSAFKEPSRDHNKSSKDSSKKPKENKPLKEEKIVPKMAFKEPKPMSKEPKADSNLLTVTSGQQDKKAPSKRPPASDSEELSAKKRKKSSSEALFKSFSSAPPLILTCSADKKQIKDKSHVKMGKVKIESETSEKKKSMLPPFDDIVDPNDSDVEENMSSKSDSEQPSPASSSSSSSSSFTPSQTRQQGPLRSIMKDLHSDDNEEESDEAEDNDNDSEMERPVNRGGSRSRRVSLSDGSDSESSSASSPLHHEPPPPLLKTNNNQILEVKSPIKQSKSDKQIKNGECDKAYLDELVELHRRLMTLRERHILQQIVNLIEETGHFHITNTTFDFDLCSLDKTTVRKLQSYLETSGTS
# UniProt Q9CQJ4: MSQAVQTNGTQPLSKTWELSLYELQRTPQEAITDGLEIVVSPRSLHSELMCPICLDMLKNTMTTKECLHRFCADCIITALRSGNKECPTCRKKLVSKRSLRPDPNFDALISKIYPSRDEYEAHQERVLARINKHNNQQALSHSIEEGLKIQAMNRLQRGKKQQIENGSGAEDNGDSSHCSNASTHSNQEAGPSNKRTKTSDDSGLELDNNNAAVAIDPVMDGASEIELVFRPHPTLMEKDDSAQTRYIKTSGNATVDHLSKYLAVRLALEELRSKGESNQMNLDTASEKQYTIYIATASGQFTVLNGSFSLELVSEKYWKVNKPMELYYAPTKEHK
# Results are given in words; binding and its absence hold for the method and conditions named. Binding seen in cells or lysates may run through a third protein. Some entries that bind do so weakly or less than the wild type.
# Molecular target: Af9 (ALL1-fused gene from chromosome 9 protein), endogenous in mIMCD3 cells (mouse (endogenous in mIMCD3)) (UniProt A2AM29)
# Test: co-IP; whole cell lysates of mIMCD3 cells in RIPA buffer, precleared; immunoprecipitated with anti-Af9 antibody or isotype control IgG overnight at 4°C, protein A/G-agarose; immunoblot with anti-Rnf2 antibody; endogenous proteins
substance,measurement,value
"Rnf2 (RING finger protein 2), endogenous in mIMCD3 cells (from UniProt Q9CQJ4 1-336)",binding,binds
